Results deposited as PubChem BioAssay AID1259308 (NCATS, 2017).

- Test: 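Candidate targets for better recombinant protein yield in mammalian cells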 (primary screen)
- Cell system: human HEK293 embryonic kidney cells stably expressing firefly luciferase (HEK-CMV-Luc2-Hygro)
- Reagent: single siRNA against human genes, 0.8 pmol siRNA per well
- Duration: 72 h
- Detection: 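Reporter luminescence and viable-cell signal on separate replicate plates, given as percent of non-targeting control and median/MAD z-scores, plus per-cell luciferase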
- Reading the numbers: total luciferase, z-score: higher = more reporter protein produced
- Active means: 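Active when the median/MAD z-score for overall luciferase is greater than 3; a gene was taken forward for validation with new siRNAs if at least two of its three siRNAs passed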
- Calls: active = raised luciferase; inactive = no rise
Here is an unselected part of about 59,000 reagents. About 1,510 of all reagents (2.6%) were called active. 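Calls use total luciferase alone and ignore viability, so some active siRNAs may act by altering cell number.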 The numbers tell different reagents against one gene apart. Further read-outs or replicates are left out here.

For ABRAXAS1 (abraxas 1, BRCA1 A complex subunit) #1, what does the deposit list?
total luciferase, z-score: -0.401; call: inactive

Which result is listed for ABRAXAS1 (abraxas 1, BRCA1 A complex subunit) #2?
total luciferase, z-score: -1.13; call: inactive

For ABRAXAS1 (abraxas 1, BRCA1 A complex subunit) #3, how do the results read?
total luciferase, z-score: 2.33; call: inactive

Which result is listed for TMEM123 (transmembrane protein 123) #1?
total luciferase, z-score: -0.134; call: inactive

What did the screen give for TMEM123 (transmembrane protein 123) #2?
total luciferase, z-score: 0.536; call: inactive

With TMEM123 (transmembrane protein 123) #3, what does the deposit list?
total luciferase, z-score: -2.31; call: inactive

What is on record for RIC3 (RIC3 acetylcholine receptor chaperone) #1?
total luciferase, z-score: 1.27; call: inactive

For RIC3 (RIC3 acetylcholine receptor chaperone) #2, how do the results read?
total luciferase, z-score: -0.488; call: inactive

With RIC3 (RIC3 acetylcholine receptor chaperone) #3, what does the deposit list?
total luciferase, z-score: -0.877; call: inactive

How did the screen score ADGRB2 (adhesion G protein-coupled receptor B2) #1?
total luciferase, z-score: 1.13; call: inactive

What is on record for ADGRB2 (adhesion G protein-coupled receptor B2) #2?
total luciferase, z-score: -0.696; call: inactive

With ADGRB2 (adhesion G protein-coupled receptor B2) #3, how do the results read?
total luciferase, z-score: 0.0375; call: inactive

With CCDC91 (coiled-coil domain containing 91) #1, how do the results read?
total luciferase, z-score: -0.617; call: inactive

Which result is listed for CCDC91 (coiled-coil domain containing 91) #2?
total luciferase, z-score: 4.34; call: active

For CCDC91 (coiled-coil domain containing 91) #3, what was measured?
total luciferase, z-score: -1.34; call: inactive

What did the screen give for HHIP-AS1 (HHIP antisense RNA 1) #1?
total luciferase, z-score: -0.836; call: inactive

For HHIP-AS1 (HHIP antisense RNA 1) #2, how do the results read?
total luciferase, z-score: 0.123; call: inactive

For HHIP-AS1 (HHIP antisense RNA 1) #3, what does the deposit list?
total luciferase, z-score: -0.806; call: inactive

For DHX37 (DEAH-box helicase 37) #1, what was measured?
total luciferase, z-score: -0.714; call: inactive

Which result is listed for DHX37 (DEAH-box helicase 37) #2?
total luciferase, z-score: -1.28; call: inactive

For DHX37 (DEAH-box helicase 37) #3, what was measured?
total luciferase, z-score: -2.17; call: inactive

For EP400P1 (EP400 pseudogene 1) #1, what does the deposit list?
total luciferase, z-score: -1.7; call: inactive

With EP400P1 (EP400 pseudogene 1) #2, how do the results read?
total luciferase, z-score: 0.422; call: inactive

For EP400P1 (EP400 pseudogene 1) #3, what does the deposit list?
total luciferase, z-score: 0.358; call: inactive

What did the screen give for LOC727961 (retired record) #1?
total luciferase, z-score: 1.31; call: inactive

What did the screen give for LOC727961 (retired record) #2?
total luciferase, z-score: 0.226; call: inactive

For LOC727961 (retired record) #3, what does the deposit list?
total luciferase, z-score: -0.0357; call: inactive

With TRPM4 #1, how do the results read?
total luciferase, z-score: 0.674; call: inactive

Which result is listed for TRPM4 #2?
total luciferase, z-score: 0.538; call: inactive

With TRPM4 #3, what was measured?
total luciferase, z-score: 2.68; call: inactive

For BICD1 (BICD cargo adaptor 1) #1, how do the results read?
total luciferase, z-score: -0.38; call: inactive

With BICD1 (BICD cargo adaptor 1) #2, what was measured?
total luciferase, z-score: -0.643; call: inactive

What did the screen give for BICD1 (BICD cargo adaptor 1) #3?
total luciferase, z-score: -0.365; call: inactive

How did the screen score CCDC172 (coiled-coil domain containing 172) #1?
total luciferase, z-score: 0.467; call: inactive

For CCDC172 (coiled-coil domain containing 172) #2, what does the deposit list?
total luciferase, z-score: -0.609; call: inactive

Which result is listed for CCDC172 (coiled-coil domain containing 172) #3?
total luciferase, z-score: 1.94; call: inactive

How did the screen score PTH2R (parathyroid hormone 2 receptor) #1?
total luciferase, z-score: -0.291; call: inactive

How did the screen score PTH2R (parathyroid hormone 2 receptor) #2?
total luciferase, z-score: -0.295; call: inactive

How did the screen score PTH2R (parathyroid hormone 2 receptor) #3?
total luciferase, z-score: -0.859; call: inactive

For SYK (spleen associated tyrosine kinase) #1, what was measured?
total luciferase, z-score: -0.763; call: inactive

What is on record for SYK (spleen associated tyrosine kinase) #2?
total luciferase, z-score: 0.0233; call: inactive

How did the screen score SYK (spleen associated tyrosine kinase) #3?
total luciferase, z-score: -1.35; call: inactive

Reformatted: entries from further up.
{"target gene":"EP400P1 (EP400 pseudogene 1)","reagent":3,"total luciferase, z-score":0.358,"call":"inactive"}
{"target gene":"LOC727961 (retired record)","reagent":1,"total luciferase, z-score":1.31,"call":"inactive"}
{"target gene":"LOC727961 (retired record)","reagent":2,"total luciferase, z-score":0.226,"call":"inactive"}
{"target gene":"LOC727961 (retired record)","reagent":3,"total luciferase, z-score":-0.0357,"call":"inactive"}
{"target gene":"TRPM4","reagent":1,"total luciferase, z-score":0.674,"call":"inactive"}
{"target gene":"TRPM4","reagent":2,"total luciferase, z-score":0.538,"call":"inactive"}
